The data set can be described thus: Tensile strength of paper. The note with it: pulp in aqueous medium with 2 wt. % total alkoxysilane, versus paper free of alkoxysilane.

For `CO[Si](C)(OC)OC` [methyltrimethoxysilane], the “improvement in tensile strength” value amounted to 16%.
As for `CCCCCCCC[Si](OCC)(OCC)OCC` [n-octyltriethoxysilane], the figure is 28%.

The values above are taken from US9605384B2, “Hydrophobic paper, cardboard, and packaging” (STL SUSTAINABLE TECHNOLOGIES, LLC, priority 2010, dated 2017).
